In PubChem BioAssay AID248 (DTP/NCI, 2004) one finds survivor count data, which are given here for 13 molecules.

The list is a part of this screen's results and no random one: it gathers tests that were run many times, whatever their T/C, doses with no T/C, and many T/C values between a quarter and a half above the control. Further doses and runs are listed elsewhere. T/C is the treated group as % of the vehicle group. Some entries give survivors of the animals treated and no T/C: the source files T/C as zero there, which appears to mark a toxic dose or a test without result, not a measured value. Some survivor counts are full or nearly so, which does not show that the dose was tolerated: survival well below the control is almost never listed, so the zero probably covers shortened survival too. Counts of survivors are from the toxicity check (mostly the fifth day) where no day follows; animals may have died later. Schedules are NCI's codes, taken here to give the interval after Q, in days (D) or hours (H), and the number of doses after X. Some schedules carry Z or #; the key to these is not given.

For the assay, the system named is L1210 leukemia ip in BDF1 mice, survival T/C. Briefly: NCI In Vivo Anticancer Drug Screen. Data for tumor model L1210 Leukemia (intraperitoneal) in B6D2F1 (BDF1) mice. To be noted: T/C endpoint: mean survival time, higher T/C = longer survival.
The mark [1] stands for this setting: dose: 200.0 mg/kg/injection, schedule: Q01DX009 (ip), vehicle: saline.
[2] abbreviates: dose: 300.0 mg/kg/injection, schedule: Q01DX001 (ip), vehicle: saline.
[3] abbreviates: dose: 400.0 mg/kg/injection, schedule: Q04DX003 (ip), vehicle: saline with Tween-80.

For `C=CC[P+](CC)(c1ccccc1)c1ccccc1`, the survivor count (dose: 6.25 mg/kg/injection, schedule: Q01DX009 (ip), vehicle: saline) is given as 0 of 3; the survivor count (dose: 12.5 mg/kg/injection, schedule: Q01DX009 (ip), vehicle: saline) is given as 0 of 3; the survivor count (dose: 25.0 mg/kg/injection, schedule: Q01DX009 (ip), vehicle: saline) is reported as 0 of 3; the survivor count (dose: 50.0 mg/kg/injection, schedule: Q01DX009 (ip), vehicle: saline) was 0 of 3; the survivor count (dose: 100.0 mg/kg/injection, schedule: Q01DX009 (ip), vehicle: saline) is on record as 0 of 3; the survivor count under setting [1] is 0 of 3.
Consider `O=CNc1ncnn1C(=S)NCc1ccccc1`, for which the survivor count under setting [1] is 0 of 6.
For `c1ccc(NC2=NCCN2)nc1`, the survivor count (dose: 150.0 mg/kg/injection, schedule: Q01DX001 (ip), vehicle: saline) was 3 of 6 and the survivor count under setting [2] is 1 of 6.
On to `CCC(/C=N/N=C(N)N)=N\N=C(N)N`, for which the survivor count was 1 of 6 (dose: 120.0 mg/kg/injection, schedule: Q01DX Z (ip), vehicle: saline); 0 of 6 (dose: 240.0 mg/kg/injection, schedule: Q01DX Z (ip), vehicle: saline); 0 of 6 (dose: 480.0 mg/kg/injection, schedule: Q01DX Z (ip), vehicle: saline); 1 of 6 (dose: 960.0 mg/kg/injection, schedule: Q01DX Z (oral), vehicle: saline).
As to `NC(=O)NNC(O)(C(F)(F)F)C(F)(F)F`, the survivor count (dose: 400.0 mg/kg/injection, schedule: Q01DX001 (ip), vehicle: carboxymethylcellulose (CMC)) is on record as 0 of 4.
For the molecule `O=C(C[n+]1ccccc1Br)c1cccc([N+](=O)[O-])c1`, the survivor count (dose: 300.0 mg/kg/injection, schedule: Q01DX001 (ip), vehicle: other) is on record as 0 of 6.
With `Cc1ccc(NC(=O)CBr)cc1`, the survivor count runs as follows: (dose: 100.0 mg/kg/injection, schedule: Q01DX001 (ip), vehicle: other) 1 of 4; (dose: 200.0 mg/kg/injection, schedule: Q01DX001 (ip), vehicle: other) 0 of 4; (dose: 400.0 mg/kg/injection, schedule: Q01DX001 (ip), vehicle: other) 0 of 4.
Regarding `CC(=O)c1ccccc1OC(=S)N(C)C`, the survivor count under setting [3] was 4 of 6.
For `CN(C)CC1(c2ccccc2)CC[N+](C)(C)C1` (stereo not drawn), the survivor count under setting [2] was 1 of 6.
`CN1C(=O)C(C)(C)C(=O)c2ccccc21`: the survivor count is given as 3 of 3 (dose: 100.0 mg/kg/injection, schedule: Q04DX002 (ip), vehicle: other); 3 of 3 (dose: 200.0 mg/kg/injection, schedule: Q04DX002 (ip), vehicle: other); 3 of 3 (dose: 400.0 mg/kg/injection, schedule: Q04DX002 (ip), vehicle: other).
Consider `O=C(N/N=C\c1ccc(Cl)cc1Cl)C1CC1`, for which the survivor count is, setting by setting: (dose: 120.0 mg/kg/injection, schedule: Q01DX Z (ip), vehicle: carboxymethylcellulose (CMC)) 4 of 6; (dose: 240.0 mg/kg/injection, schedule: Q01DX Z (oral), vehicle: carboxymethylcellulose (CMC)) 0 of 6.
Turning to `O=C1c2ccccc2C(=O)N1CN1CCC(CCCC2CCN(CN3C(=O)c4ccccc4C3=O)CC2)CC1`, the survivor count (dose: 200.0 mg/kg/injection, schedule: Q04DX003 (ip), vehicle: saline with Tween-80) was 3 of 3 and the survivor count under setting [3] was 3 of 3.
In the case of `O=C(NC(=S)Nc1cccc(Cl)c1)c1ccccc1`, the survivor count (dose: 400.0 mg/kg/injection, schedule: Q01DX009 (ip), vehicle: Klucel (hydroxypropylcellulose) (HPC)) is 0 of 6.
